The list shows a part of the results.
Experiments:
Experiment in all cases: log2 fold change, soluble protein after heating vs DMSO (PISA); higher = thermal stabilisation; K562 cells, 10 uM, 30 min; active = over 0.2 and 3.5 SD of the protein, either way, in both replicates (recomputed)
[1] = compound: CS(=O)(=O)c1ccc(-c2cnc(N)c(C(=O)Nc3ccccc3)n2)cc1
In short: (§1)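 Values are thermal stability changes relative to control samples and are taken from duplicates. They are stated as log2 fold changes. Before quantification by TMTpro 16plex LC-MS/MS with equalised channel sums, K562 cells at 2×10^6 cells/mL were treated with 10 μM compound for 30 min, heated in aliquots for 3 min across 48°C-58°C, pooled, extracted in PBS with 0.5% NP-40 at 4°C, and centrifuged at 21,000xg for 90 min to give the soluble supernatant.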

Chains of the proteins cited; added tags and fusions are not shown. Lines headed by an entry give the natural chain unless they say otherwise; changes in a name come on top.
UniProt P78406: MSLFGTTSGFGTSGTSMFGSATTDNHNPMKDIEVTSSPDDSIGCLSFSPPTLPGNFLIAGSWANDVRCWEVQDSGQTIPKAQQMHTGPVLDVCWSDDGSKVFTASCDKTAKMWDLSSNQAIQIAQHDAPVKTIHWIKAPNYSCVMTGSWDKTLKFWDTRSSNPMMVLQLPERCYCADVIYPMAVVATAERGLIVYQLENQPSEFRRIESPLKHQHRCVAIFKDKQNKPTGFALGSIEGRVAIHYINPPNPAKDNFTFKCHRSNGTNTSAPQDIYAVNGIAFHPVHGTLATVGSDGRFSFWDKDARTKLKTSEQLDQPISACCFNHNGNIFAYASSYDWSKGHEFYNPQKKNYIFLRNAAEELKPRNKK
UniProt P20338: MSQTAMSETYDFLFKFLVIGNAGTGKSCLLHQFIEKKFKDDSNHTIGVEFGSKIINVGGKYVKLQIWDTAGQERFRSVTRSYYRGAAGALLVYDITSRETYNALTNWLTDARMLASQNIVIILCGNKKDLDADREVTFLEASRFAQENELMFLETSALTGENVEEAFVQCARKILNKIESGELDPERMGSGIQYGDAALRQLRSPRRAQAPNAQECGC
UniProt Q9UL25: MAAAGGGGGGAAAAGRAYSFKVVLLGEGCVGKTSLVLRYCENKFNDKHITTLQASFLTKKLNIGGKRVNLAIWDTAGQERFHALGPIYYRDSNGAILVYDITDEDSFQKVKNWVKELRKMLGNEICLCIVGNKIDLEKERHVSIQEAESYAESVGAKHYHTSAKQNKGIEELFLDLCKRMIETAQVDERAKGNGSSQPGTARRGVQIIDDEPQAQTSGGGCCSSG
UniProt P47736: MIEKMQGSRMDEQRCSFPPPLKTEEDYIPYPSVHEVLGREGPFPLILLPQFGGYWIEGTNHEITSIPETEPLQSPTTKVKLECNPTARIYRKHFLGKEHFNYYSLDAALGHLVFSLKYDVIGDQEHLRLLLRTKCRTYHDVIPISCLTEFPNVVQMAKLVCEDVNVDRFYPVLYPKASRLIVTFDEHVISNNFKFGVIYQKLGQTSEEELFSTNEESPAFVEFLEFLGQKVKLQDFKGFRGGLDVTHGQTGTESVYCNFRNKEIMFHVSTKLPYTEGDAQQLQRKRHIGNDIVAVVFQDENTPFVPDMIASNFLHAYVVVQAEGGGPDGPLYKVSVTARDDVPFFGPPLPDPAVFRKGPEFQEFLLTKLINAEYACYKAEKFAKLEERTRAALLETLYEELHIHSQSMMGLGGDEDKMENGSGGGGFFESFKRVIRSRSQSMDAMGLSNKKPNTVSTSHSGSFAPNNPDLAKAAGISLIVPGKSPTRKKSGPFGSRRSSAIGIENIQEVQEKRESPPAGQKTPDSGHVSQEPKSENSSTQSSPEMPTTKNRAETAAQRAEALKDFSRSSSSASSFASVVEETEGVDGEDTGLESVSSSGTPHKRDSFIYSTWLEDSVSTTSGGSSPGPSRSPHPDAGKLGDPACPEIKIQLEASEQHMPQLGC
UniProt Q86YS3: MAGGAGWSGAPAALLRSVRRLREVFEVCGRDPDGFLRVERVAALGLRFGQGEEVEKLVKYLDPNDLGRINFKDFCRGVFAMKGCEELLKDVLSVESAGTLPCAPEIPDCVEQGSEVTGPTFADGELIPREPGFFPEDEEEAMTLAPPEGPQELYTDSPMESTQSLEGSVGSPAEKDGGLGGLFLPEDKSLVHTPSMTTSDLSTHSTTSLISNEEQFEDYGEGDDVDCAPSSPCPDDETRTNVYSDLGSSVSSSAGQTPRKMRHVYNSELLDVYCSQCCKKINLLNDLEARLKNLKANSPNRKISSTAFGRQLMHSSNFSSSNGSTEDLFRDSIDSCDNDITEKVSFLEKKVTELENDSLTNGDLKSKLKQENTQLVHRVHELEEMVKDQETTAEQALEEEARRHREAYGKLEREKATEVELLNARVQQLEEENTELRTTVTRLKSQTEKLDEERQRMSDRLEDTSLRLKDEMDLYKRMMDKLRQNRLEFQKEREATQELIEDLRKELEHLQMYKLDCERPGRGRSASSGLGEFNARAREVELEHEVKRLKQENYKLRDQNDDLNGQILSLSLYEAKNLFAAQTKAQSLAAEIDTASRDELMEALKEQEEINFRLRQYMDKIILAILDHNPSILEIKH
UniProt Q9NX57: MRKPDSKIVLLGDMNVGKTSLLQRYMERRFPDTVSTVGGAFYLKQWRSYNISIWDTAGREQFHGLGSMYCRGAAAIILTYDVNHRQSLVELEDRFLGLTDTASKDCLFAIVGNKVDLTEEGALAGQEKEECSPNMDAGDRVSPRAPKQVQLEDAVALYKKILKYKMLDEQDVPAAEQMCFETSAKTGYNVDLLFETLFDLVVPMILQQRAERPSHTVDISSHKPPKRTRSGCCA
UniProt P43487, whole entry, looked up: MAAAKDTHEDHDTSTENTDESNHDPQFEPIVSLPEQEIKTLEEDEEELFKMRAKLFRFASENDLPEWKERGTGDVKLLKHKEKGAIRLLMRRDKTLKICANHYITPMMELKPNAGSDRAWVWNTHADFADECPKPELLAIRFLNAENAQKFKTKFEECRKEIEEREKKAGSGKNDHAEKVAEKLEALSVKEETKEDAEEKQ
UniProt Q15286: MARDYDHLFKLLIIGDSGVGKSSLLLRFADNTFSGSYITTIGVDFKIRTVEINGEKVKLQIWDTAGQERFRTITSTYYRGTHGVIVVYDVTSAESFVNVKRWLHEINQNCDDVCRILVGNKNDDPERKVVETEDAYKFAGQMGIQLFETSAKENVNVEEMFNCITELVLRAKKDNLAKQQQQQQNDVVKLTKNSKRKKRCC
UniProt P47224: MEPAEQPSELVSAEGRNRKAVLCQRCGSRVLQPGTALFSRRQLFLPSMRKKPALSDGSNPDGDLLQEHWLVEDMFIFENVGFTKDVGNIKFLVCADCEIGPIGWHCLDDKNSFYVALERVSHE
UniProt P61020: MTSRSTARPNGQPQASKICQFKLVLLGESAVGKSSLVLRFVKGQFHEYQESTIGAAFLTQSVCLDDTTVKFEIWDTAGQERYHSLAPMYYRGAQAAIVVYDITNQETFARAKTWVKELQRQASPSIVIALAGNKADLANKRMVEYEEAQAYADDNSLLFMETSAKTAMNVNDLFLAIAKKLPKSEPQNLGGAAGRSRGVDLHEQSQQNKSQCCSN
UniProt O14966: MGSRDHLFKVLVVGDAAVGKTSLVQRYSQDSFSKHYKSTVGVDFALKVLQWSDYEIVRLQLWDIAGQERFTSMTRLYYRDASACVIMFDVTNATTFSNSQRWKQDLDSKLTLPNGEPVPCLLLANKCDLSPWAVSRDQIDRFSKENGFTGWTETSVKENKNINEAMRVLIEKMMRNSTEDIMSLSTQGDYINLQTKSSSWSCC
UniProt P20340: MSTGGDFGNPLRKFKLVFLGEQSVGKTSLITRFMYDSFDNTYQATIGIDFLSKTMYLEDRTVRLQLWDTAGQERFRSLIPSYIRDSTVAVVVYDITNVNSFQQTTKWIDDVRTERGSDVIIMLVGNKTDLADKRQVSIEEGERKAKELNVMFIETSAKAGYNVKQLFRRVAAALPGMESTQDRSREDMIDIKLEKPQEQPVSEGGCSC
UniProt Q9UJ41, whole entry, looked up: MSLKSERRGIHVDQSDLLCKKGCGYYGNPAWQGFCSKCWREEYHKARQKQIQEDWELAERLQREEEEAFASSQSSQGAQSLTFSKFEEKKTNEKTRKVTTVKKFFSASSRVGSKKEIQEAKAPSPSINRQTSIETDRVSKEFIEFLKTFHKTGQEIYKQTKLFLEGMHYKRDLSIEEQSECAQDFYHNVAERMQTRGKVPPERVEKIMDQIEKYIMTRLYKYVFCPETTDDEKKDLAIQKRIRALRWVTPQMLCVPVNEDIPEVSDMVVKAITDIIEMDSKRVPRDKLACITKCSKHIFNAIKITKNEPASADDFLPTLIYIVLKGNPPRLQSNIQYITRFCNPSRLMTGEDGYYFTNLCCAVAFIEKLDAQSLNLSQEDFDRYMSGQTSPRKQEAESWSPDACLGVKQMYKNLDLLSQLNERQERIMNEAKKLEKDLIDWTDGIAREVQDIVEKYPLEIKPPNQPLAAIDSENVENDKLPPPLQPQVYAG
UniProt P51149, whole entry, looked up: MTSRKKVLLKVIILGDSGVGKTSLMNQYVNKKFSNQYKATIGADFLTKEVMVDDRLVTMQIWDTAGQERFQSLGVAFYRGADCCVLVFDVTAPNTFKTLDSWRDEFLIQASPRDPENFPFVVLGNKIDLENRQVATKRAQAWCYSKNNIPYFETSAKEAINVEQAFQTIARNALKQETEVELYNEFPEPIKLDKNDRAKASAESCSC
UniProt Q9UL26: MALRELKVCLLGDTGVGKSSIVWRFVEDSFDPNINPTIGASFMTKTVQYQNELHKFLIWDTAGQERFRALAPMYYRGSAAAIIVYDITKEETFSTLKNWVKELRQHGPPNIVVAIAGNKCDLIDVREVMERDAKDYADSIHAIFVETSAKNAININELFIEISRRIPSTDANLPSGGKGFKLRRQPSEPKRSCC

crizotinib = compound: C[C@@H](Oc1cc(-c2cnn(C3CCNCC3)c2)cnc1N)c1c(Cl)ccc(F)c1Cl [crizotinib]
In short: as §1

[2] = compound: C[C@@H]1COCCN1C2=NC(=NC(=C2)C3(CC3)S(=O)(=O)C)C4=C5C=CNC5=CC=C4
In short: as §1

[3] = compound: C[C@H](C1=CC=C(C=C1)C(=O)NC2=C3C=CNC3=NC=C2)N
In short: as §1

duvelisib = compound: C[C@H](Nc1ncnc2nc[nH]c12)c1cc2cccc(Cl)c2c(=O)n1-c1ccccc1 [duvelisib]
In short: as §1

gandotinib = compound: Cc1cc(Nc2cc(CN3CCOCC3)c3nc(C)c(Cc4ccc(Cl)cc4F)n3n2)n[nH]1 [gandotinib]
In short: as §1

tozasertib = compound: Cc1cc(Nc2cc(N3CCN(C)CC3)nc(Sc3ccc(NC(=O)C4CC4)cc3)n2)n[nH]1 [tozasertib]
In short: as §1

[4] = compound: Cc1cc(SCc2sc(-c3ccc(C(F)(F)F)cc3)nc2C)ccc1OCC(=O)O
In short: as §1

doramapimod = compound: Cc1ccc(-n2nc(C(C)(C)C)cc2NC(=O)Nc2ccc(OCCN3CCOCC3)c3ccccc23)cc1 [doramapimod]
In short: as §1

ispinesib = compound: Cc1ccc(C(=O)N(CCCN)[C@@H](c2nc3cc(Cl)ccc3c(=O)n2Cc2ccccc2)C(C)C)cc1 [ispinesib]
In short: as §1

bafetinib = compound: Cc1ccc(NC(=O)c2ccc(CN3CC[C@H](N(C)C)C3)c(C(F)(F)F)c2)cc1Nc1nccc(-c2cncnc2)n1 [bafetinib]
In short: as §1

[5] = compound: Cc1cccc(CC(=O)N2CCc3c2ccc(-c2cn(C)c4ncnc(N)c24)c3F)n1
In short: as §1

nilotinib = compound: Cc1cn(-c2cc(NC(=O)c3ccc(C)c(Nc4nccc(-c5cccnc5)n4)c3)cc(C(F)(F)F)c2)cn1 [nilotinib]
In short: as §1

[6] = compound: Cc1nc(Nc2n[nH]c3c2CN(C(=O)N[C@H](CN(C)C)c2ccccc2)C3(C)C)c2sccc2n1
In short: as §1

dasatinib = compound: Cc1nc(Nc2ncc(C(=O)Nc3c(C)cccc3Cl)s2)cc(N2CCN(CCO)CC2)n1 [dasatinib]
In short: as §1

[7] = compound: Cc1ncc(-c2ccnc(Nc3ccc(S(C)(=O)=O)cc3)n2)n1C(C)C
In short: as §1

[8] = compound: Cn1cc(-c2ccc3c(c2)CCN3C(=O)Cc2cccc(C(F)(F)F)c2)c2c(N)ncnc21
In short: as §1

[9] = compound: Cn1cc(-c2ccc3nnc(C(F)(F)c4ccc5ncccc5c4)n3n2)cn1
In short: as §1

tipifarnib = compound: Cn1cncc1[C@@](N)(c1ccc(Cl)cc1)c1ccc2c(c1)c(-c1cccc(Cl)c1)cc(=O)n2C [tipifarnib]
In short: as §1

mubritinib = compound: FC(F)(F)c1ccc(/C=C/c2nc(COc3ccc(CCCCn4ccnn4)cc3)co2)cc1 [mubritinib]
In short: as §1

Measured: log2 fold change

RAE1 (UniProt P78406)
inactive: [1] 0.029 | crizotinib -0.059 | [2] -0.023 | [3] 0.103 | duvelisib -0.047 | gandotinib 0.053 | tozasertib -0.033 | [4] 0.184 | doramapimod 0.04 | ispinesib -0.102 | bafetinib 0.014 | [5] -0.002 | nilotinib -0.058 | [6] -0.077 | dasatinib -0.045 | [7] 0.013 | [8] -0.065 | [9] -0.083 | tipifarnib -0.02 | mubritinib -0.101

RAC2 (UniProt P15153)
inactive: [1] 0.006 | crizotinib 0.023 | [2] -0.056 | [3] -0.039 | duvelisib 0.079 | gandotinib -0.019 | tozasertib -0.051 | [4] -0.036 | doramapimod -0.028 | ispinesib 0.056 | bafetinib 0.014 | [5] -0.033 | nilotinib 0.049 | [6] 0.025 | dasatinib 0.061 | [7] -0.001 | [8] -0.008 | [9] 0.058 | tipifarnib 0.017 | mubritinib 0.018

RAB4A (UniProt P20338)
inactive: [1] 0.035 | crizotinib 0.057 | [2] 0.061 | [3] 0.01 | duvelisib -0.004 | gandotinib -0.003 | tozasertib -0.057 | [4] -0.021 | doramapimod -0.039 | ispinesib 0.033 | bafetinib -0.042 | [5] -0.042 | nilotinib 0.048 | [6] -0.002 | dasatinib 0.031 | [7] -0.001 | [8] 0.043 | [9] 0.031 | tipifarnib -0.105 | mubritinib 0.02

RAB21 (UniProt Q9UL25)
inactive: [1] 0.029 | crizotinib 0.033 | [2] 0.02 | [3] -0.048 | duvelisib 0.049 | gandotinib -0.067 | tozasertib -0.02 | [4] -0.007 | doramapimod -0.01 | ispinesib -0.023 | bafetinib -0.038 | [5] 0.023 | nilotinib -0.004 | [6] 0.041 | dasatinib 0.009 | [7] -0.009 | [8] 0.046 | [9] 0.039 | tipifarnib -0.005 | mubritinib 0.011

RAP1GAP isoform 4 (UniProt P47736)
inactive: [1] -0.043 | crizotinib -0.128 | [2] -0.022 | [3] -0.028 | duvelisib -0.153 | gandotinib -0.143 | tozasertib -0.012 | [4] 0.107 | doramapimod 0.107 | ispinesib -0.113 | bafetinib -0.015 | [5] -0.074 | nilotinib 0.018 | [6] -0.185 | dasatinib -0.035 | [7] -0.078 | [8] -0.049 | [9] 0.021 | tipifarnib -0.059 | mubritinib -0.195

RAB11FIP4 (UniProt Q86YS3)
inactive: [1] 0.009

RAB20 (UniProt Q9NX57)
inactive: [1] 0.057 | crizotinib 0.052 | [2] 0.134 | [3] -0.043 | duvelisib 0.062 | gandotinib 0.018 | tozasertib -0.057 | [4] 0.022 | doramapimod 0.047 | ispinesib 0.08 | bafetinib -0.021 | [5] -0.044 | nilotinib 0.04 | [6] 0.025 | dasatinib 0.015 | [7] 0.05 | [8] 0.004 | [9] 0.073 | tipifarnib 0.029 | mubritinib -0.036

RANBP1 (UniProt P43487)
inactive: [1] 0.012 | crizotinib -0.007 | [2] 0.046 | [3] -0.103 | duvelisib -0.017 | gandotinib 0.024 | tozasertib 0.023 | [4] 0 | doramapimod 0.033 | ispinesib 0.01 | bafetinib 0.049 | [5] -0.008 | nilotinib -0.005 | [6] -0.058 | dasatinib -0.008 | [7] 0.011 | [8] 0.033 | [9] 0.013 | tipifarnib -0.011 | mubritinib 0.045

RAB35 (UniProt Q15286)
inactive: [1] 0.012 | crizotinib 0.015 | [2] 0.011 | [3] -0.069 | duvelisib 0.009 | gandotinib -0.027 | tozasertib -0.043 | [4] -0.025 | doramapimod -0.009 | ispinesib -0.058 | bafetinib -0.039 | [5] -0.088 | nilotinib 0.126 | [6] 0.005 | dasatinib 0.08 | [7] 0.009 | [8] -0.001 | [9] 0.034 | tipifarnib -0.001 | mubritinib -0.001

RACK1 (UniProt P63244)
inactive: [1] -0.038 | crizotinib 0.042 | [2] -0.07 | [3] -0.126 | duvelisib -0.003 | gandotinib -0.032 | tozasertib 0.004 | [4] 0.012 | doramapimod -0.053 | ispinesib 0.068 | bafetinib 0.043 | [5] -0.001 | nilotinib 0.009 | [6] 0.125 | dasatinib -0.004 | [7] -0.035 | [8] 0.024 | [9] 0.016 | tipifarnib -0.052 | mubritinib 0.061

2 entries drawn at random from those above, as already listed:
RAB35 (UniProt Q15286)
inactive: [1] 0.012 | crizotinib 0.015 | [2] 0.011 | [3] -0.069 | duvelisib 0.009 | gandotinib -0.027 | tozasertib -0.043 | [4] -0.025 | doramapimod -0.009 | ispinesib -0.058 | bafetinib -0.039 | [5] -0.088 | nilotinib 0.126 | [6] 0.005 | dasatinib 0.08 | [7] 0.009 | [8] -0.001 | [9] 0.034 | tipifarnib -0.001 | mubritinib -0.001

RAB11FIP4 (UniProt Q86YS3)
inactive: [1] 0.009

The list goes on:

RABIF (UniProt P47224)
inactive: [1] 0.086 | crizotinib 0.002 | [2] -0.021 | [3] -0.08 | duvelisib -0.019 | gandotinib 0.111 | tozasertib 0.061 | [4] -0.007 | doramapimod -0.129 | ispinesib 0.13 | bafetinib -0.061 | [5] 0.048 | nilotinib 0.018 | [6] -0.091 | dasatinib 0.038 | [7] 0.045 | [8] 0.046 | [9] 0.029 | tipifarnib -0.037 | mubritinib 0.016

RAB5B (UniProt P61020)
inactive: [1] 0.002 | crizotinib -0.014 | [2] 0.008 | [3] -0.13 | duvelisib -0.01 | gandotinib 0.08 | tozasertib -0.033 | [4] -0.076 | doramapimod 0.003 | ispinesib 0.069 | bafetinib -0.003 | [5] 0.041 | nilotinib -0.011 | [6] 0.017 | dasatinib 0.029 | [7] 0.004 | [8] -0.014 | [9] -0.049 | tipifarnib -0.013 | mubritinib 0.026

RAB29 (UniProt O14966)
inactive: [1] 0.103 | crizotinib 0.029 | [2] 0.057 | [3] -0.024 | duvelisib -0.02 | gandotinib -0.177 | tozasertib -0.028 | [4] -0.042 | doramapimod 0.009 | ispinesib 0.028 | bafetinib 0.032 | [5] 0.014 | nilotinib -0.014 | [6] -0.039 | dasatinib 0.086 | [7] 0.105 | [8] -0.009 | [9] 0.004 | tipifarnib 0.047 | mubritinib 0

RAB6A isoform 2 (UniProt P20340)
inactive: [1] 0.024 | crizotinib 0.127 | [2] -0.057 | [3] -0.004 | duvelisib 0.027 | gandotinib -0.06 | tozasertib -0.024 | [4] -0.04 | doramapimod -0.024 | ispinesib 0.086 | bafetinib 0.015 | [5] 0.007 | nilotinib 0.003 | [6] 0.004 | dasatinib 0.032 | [7] -0.006 | [8] 0.027 | [9] 0.017 | tipifarnib -0.008 | mubritinib -0.005

RABGEF1 isoform 3 (UniProt Q9UJ41)
inactive: [1] 0.068 | crizotinib 0.024 | [2] 0.029 | [3] -0.004 | duvelisib 0.006 | gandotinib 0.01 | tozasertib 0.008 | [4] 0.07 | doramapimod -0.044 | ispinesib 0.008 | bafetinib -0.065 | [5] -0.04 | nilotinib 0.004 | [6] 0.011 | dasatinib -0.011 | [7] 0.023 | [8] 0.001 | [9] 0.052 | tipifarnib -0.013 | mubritinib -0.018

RAB7A (UniProt P51149)
inactive: [1] 0.027 | crizotinib 0.042 | [2] -0.019 | [3] -0.081 | duvelisib -0.001 | gandotinib -0.005 | tozasertib 0.001 | [4] -0.024 | doramapimod -0.055 | ispinesib 0.027 | bafetinib -0.071 | [5] -0.03 | nilotinib 0.013 | [6] -0.006 | dasatinib 0.046 | [7] -0.017 | [8] 0.011 | [9] 0.001 | tipifarnib 0.02 | mubritinib 0.008

RAB22A (UniProt Q9UL26)
inactive: [1] 0.061 | crizotinib 0.084 | [2] 0.042 | [3] -0.087 | duvelisib 0.08 | gandotinib 0.019 | tozasertib -0.016 | [4] -0.009 | doramapimod -0.028 | ispinesib 0.017 | bafetinib -0.029 | [5] -0.07 | nilotinib -0.026 | [6] 0.02 | dasatinib -0.004 | [7] 0.001 | [8] -0.009 | [9] 0.018 | tipifarnib -0.032 | mubritinib 0.041
